Test results: PMC10573436
Results are given in words; binding and its absence hold for the method and conditions named. Binding seen in cells or lysates may run through a third protein. Some entries that bind do so weakly or less than the wild type. Sequences can lack the tags named with a protein. Each block holds one binder with its values, some of them ahead of it.

The chains behind the UniProt entries cited, without tags or fusion partners. Residues count along the entry.
UniProt P19525, residues 1-265: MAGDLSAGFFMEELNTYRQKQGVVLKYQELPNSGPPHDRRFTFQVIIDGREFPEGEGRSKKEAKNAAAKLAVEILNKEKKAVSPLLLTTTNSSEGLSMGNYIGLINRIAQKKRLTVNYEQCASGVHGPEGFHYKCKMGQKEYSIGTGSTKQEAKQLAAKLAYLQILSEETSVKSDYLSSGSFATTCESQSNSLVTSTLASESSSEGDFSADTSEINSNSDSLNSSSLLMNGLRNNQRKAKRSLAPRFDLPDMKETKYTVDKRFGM

Columns and labels:
[1] = target: T1, full-length PACT (PKR activator) fused to a nanoluciferase moiety, O75569; assay: split reporter; conditions: remark: other sources report otherwise
T1 chain: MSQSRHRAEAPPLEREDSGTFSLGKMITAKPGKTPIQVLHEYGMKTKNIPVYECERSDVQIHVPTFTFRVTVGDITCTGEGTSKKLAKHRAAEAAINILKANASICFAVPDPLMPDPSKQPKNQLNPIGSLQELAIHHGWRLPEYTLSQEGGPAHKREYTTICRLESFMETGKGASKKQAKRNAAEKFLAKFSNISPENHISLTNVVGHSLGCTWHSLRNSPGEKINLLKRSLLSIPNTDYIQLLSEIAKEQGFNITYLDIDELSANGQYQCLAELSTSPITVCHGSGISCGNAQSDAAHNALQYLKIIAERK

[2] = target: N-terminus of dsRNA-dependent protein kinase PKR, aa 1-265 (NtPKR), fused to a nanoluciferase moiety (UniProt P19525); assay: split reporter

- binding [1]: binds
B1: retinoic acid-inducible gene I (RIG-I) fused to nanoluciferase moiety N2, O95786 1-925 (protein)
chain: MTTEQRRSLQAFQDYIRKTLDPTYILSYMAPWFREEEVQYIQAEKNNKGPMEAATLFLKFLLELQEEGWFRGFLDALDHAGYSGLYEAIESWDFKKIEKLEEYRLLLKRLQPEFKTRIIPTDIISDLSECLINQECEEILQICSTKGMMAGAEKLVECLLRSDKENWPKTLKLALEKERNKFSELWIVEKGIKDVETEDLEDKMETSDIQIFYQEDPECQNLSENSCPPSEVSDTNLYSPFKPRNYQLELALPAMKGKNTIICAPTGCGKTFVSLLICEHHLKKFPQGQKGKVVFFANQIPVYEQQKSVFSKYFERHGYRVTGISGATAENVPVEQIVENNDIIILTPQILVNNLKKGTIPSLSIFTLMIFDECHNTSKQHPYNMIMFNYLDQKLGGSSGPLPQVIGLTASVGVGDAKNTDEALDYICKLCASLDASVIATVKHNLEELEQVVYKPQKFFRKVESRISDKFKYIIAQLMRDTESLAKRICKDLENLSQIQNREFGTQKYEQWIVTVQKACMVFQMPDKDEESRICKALFLYTSHLRKYNDALIISEHARMKDALDYLKDFFSNVRAAGFDEIEQDLTQRFEEKLQELESVSRDPSNENPKLEDLCFILQEEYHLNPETITILFVKTRALVDALKNWIEGNPKLSFLKPGILTGRGKTNQNTGMTLPAQKCILDAFKASGDHNILIATSVADEGIDIAQCNLVILYEYVGNVIKMIQTRGRGRARGSKCFLLTSNAGVIEKEQINMYKEKMMNDSILRLQTWDEAVFREKILHIQTHEKFIRDSQEKPKPVPDKENKKLLCRKCKALACYTADVRVIEECHYTVLGDAFKECFVSRPHPKPKQFSSFEKRAKIFCARQNCSHDWGIHVKYKTFEIPVIKIESFVVEDIATGVQTLYSKWKDFHFEKIPFDPAEMSK

- binding [2]: binds
B2: retinoic acid-inducible gene I (RIG-I) fused to nanoluciferase moiety N2 (protein, UniProt O95786 1-925)
chain: B1 chain
